Measured values as given in patent US20050113284A1, “Drug for regenerating tissue and vessel and method therefor” (priority 2001, published 2005).
At least one compound was matched to its structure with a doubt left.

System: MERMUC
Test: MERMUC protein phosphorylation in [32P]-labelled MERMUC/293 cells
Type: cell-based, human
Settings: cells treated with inhibitor 10 μM before HGF stimulation
Protocol: After labeling the Tet-Off/MERMUC expressing recombinant cells (MERMUC/293 cells) produced above with (^32P] orthophosphate, the cells were stimulated with human recombinant HGF (20ng/ml; 5 min). Next, cell lysate was prepared by lysing cells according to conventional method. Anti-human MERMUC polyclonal antibody prepared as above (Example 2) was added to and reacted with the obtained cell lysate, bound to protein-G Sepharose, and then MERMUC protein and anti-MERMUC polyclonal antibody complex was precipitated by centrifugation.
The precipitate was extracted with 1% SDS and similar immunoprecipitation procedure was performed to reduce the background. The sample prepared by this procedure was separated by SDS-PAGE and analyzed by autoradiography.
Furthermore, MERMUC expression in the above mentioned recombinant cells was confirmed to be constant regardless of the presence or absence of HGF by Western blotting according to conventional method using anti-human MERMUC polyclonal antibody. […]

O=c1cc(N2CCOCC2)oc2c(-c3ccccc3)cccc12 [PI3 kinase inhibitor, LY294002, reference compound]
suppression of the enhancement of MERMUC phosphorylation: suppressed
